Publication PMC5564716
These are yes or no findings as the source states them, for the method shown. In cells and extracts the contact can be indirect. Some entries that bind do so weakly or less than the wild type.

The chains behind the UniProt entries cited, without tags or fusion partners.
UniProt Q12888: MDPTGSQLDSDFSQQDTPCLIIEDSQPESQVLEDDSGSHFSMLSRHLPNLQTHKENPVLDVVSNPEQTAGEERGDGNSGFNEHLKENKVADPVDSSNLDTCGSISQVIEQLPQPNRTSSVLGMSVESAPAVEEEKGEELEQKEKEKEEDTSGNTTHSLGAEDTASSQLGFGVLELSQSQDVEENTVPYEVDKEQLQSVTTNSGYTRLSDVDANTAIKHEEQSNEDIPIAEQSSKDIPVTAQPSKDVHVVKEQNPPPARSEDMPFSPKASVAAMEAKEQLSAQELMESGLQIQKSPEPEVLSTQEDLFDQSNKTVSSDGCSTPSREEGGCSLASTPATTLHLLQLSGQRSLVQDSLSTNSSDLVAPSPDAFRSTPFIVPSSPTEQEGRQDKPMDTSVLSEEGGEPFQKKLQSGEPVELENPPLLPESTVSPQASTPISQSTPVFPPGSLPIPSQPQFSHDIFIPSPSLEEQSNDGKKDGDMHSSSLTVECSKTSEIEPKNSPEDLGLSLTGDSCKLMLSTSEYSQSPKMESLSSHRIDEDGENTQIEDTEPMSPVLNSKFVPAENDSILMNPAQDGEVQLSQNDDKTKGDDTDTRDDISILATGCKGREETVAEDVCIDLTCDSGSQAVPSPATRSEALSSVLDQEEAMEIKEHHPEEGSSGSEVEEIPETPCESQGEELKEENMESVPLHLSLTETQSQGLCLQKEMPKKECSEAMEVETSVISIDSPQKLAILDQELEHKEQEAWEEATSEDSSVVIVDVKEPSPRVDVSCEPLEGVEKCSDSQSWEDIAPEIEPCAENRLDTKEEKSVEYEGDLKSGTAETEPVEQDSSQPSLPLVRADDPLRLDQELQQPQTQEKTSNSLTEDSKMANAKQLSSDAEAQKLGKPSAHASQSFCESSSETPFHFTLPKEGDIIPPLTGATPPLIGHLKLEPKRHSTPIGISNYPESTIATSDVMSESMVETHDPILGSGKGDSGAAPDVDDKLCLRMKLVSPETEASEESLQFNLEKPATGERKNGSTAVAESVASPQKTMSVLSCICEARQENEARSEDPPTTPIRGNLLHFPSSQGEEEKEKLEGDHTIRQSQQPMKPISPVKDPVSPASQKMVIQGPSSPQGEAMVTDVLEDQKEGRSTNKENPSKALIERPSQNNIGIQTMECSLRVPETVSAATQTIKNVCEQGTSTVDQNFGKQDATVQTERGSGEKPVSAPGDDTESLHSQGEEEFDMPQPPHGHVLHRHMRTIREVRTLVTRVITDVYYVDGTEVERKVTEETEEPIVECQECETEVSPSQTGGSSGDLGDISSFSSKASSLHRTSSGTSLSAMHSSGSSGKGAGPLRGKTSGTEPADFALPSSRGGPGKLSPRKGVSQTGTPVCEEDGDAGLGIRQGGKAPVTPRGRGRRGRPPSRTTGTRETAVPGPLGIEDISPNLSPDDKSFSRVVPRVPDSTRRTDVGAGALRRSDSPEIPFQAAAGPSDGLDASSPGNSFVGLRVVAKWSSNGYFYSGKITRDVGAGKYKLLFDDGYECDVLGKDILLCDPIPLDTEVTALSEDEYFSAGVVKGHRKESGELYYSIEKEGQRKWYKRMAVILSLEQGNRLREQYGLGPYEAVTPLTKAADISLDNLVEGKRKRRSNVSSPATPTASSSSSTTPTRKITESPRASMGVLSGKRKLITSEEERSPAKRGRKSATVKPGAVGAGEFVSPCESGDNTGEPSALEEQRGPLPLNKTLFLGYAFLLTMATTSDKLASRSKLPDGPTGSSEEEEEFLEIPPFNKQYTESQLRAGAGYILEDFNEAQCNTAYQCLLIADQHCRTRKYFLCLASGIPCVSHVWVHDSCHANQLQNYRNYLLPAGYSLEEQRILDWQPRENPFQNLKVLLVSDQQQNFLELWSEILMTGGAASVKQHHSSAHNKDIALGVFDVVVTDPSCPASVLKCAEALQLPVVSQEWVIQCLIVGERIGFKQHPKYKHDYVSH

Target: T1, mitotic centromere-associated kinesin (MCAK), endogenous (human (endogenous in human cells)) (UniProt Q99661)
T1 sequence: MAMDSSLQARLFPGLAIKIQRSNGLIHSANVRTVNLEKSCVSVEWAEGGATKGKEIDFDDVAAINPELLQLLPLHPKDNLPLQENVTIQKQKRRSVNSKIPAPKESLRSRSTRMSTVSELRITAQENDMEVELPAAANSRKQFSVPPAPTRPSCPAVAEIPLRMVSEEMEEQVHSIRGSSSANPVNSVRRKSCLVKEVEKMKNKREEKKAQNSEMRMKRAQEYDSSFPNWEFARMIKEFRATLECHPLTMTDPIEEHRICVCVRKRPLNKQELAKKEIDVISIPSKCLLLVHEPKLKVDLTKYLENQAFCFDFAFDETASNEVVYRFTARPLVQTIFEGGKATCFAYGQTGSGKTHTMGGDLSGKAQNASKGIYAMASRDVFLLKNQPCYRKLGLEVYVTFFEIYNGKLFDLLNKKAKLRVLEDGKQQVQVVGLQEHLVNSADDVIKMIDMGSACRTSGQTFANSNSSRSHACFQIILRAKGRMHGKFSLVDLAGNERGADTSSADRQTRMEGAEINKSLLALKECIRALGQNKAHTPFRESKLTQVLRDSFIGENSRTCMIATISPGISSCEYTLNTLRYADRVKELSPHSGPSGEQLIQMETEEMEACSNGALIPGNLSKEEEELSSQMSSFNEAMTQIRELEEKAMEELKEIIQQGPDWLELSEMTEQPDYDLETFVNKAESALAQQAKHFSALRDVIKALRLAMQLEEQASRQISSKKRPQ
Assay: co-IP; endogenous immunoprecipitation of 53BP1 or MCAK from extracts of unsynchronized or NOC-synchronized mitotic cells, immunoblotting

## tumor suppressor p53-binding protein 1 (53BP1), endogenous (from UniProt Q12888 1-1972)
  binding: binds
